# From patent US20090082268A1 (GEYMONAT S P A, published 2009)
# By UniProt entry, the sequences of proteins in these tests, tags left out. Residues count along the entry.
# UniProt P17948, residues 27-756: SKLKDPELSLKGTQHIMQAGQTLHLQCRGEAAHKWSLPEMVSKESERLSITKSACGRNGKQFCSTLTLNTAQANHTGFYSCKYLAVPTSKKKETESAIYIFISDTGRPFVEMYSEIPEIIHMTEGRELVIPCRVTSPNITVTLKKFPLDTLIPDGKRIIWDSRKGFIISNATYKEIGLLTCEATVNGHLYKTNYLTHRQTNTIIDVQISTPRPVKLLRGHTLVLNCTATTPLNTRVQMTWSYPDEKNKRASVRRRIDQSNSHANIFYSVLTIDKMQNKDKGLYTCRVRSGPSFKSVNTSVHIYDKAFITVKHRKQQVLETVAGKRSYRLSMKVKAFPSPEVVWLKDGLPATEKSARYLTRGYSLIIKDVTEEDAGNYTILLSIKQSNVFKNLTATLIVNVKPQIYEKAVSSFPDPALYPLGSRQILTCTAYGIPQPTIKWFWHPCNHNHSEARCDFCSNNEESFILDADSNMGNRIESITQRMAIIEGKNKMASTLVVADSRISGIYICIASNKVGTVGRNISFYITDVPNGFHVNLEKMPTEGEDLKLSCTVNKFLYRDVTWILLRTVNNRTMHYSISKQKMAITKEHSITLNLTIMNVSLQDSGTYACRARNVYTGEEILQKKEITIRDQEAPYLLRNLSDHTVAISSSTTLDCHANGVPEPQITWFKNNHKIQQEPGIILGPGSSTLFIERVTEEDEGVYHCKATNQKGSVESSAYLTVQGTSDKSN
# Changes are numbered by the printed parent chain. These are yes or no findings as the source states them, for the method shown. Some results given as binding are weak or reduced against the parent protein; the word gives no strength.
# B1: wild-type recombinant human PlGF-1, preparation R-HPG-P08 (Eurogentec) (ligand)
# chain: MLPAVPPQQWALSAGNGSSEVEVVPFQEVWGRSYCRALERLVDVVSEYPSEVEHMFSPSCVSLLRCTGCCGDENLHCVPVETANVTMQLLKIRSGDRPSYVELTFSQHVRCECRPLREKMKPERCGDAVPRR
# B2: wild-type recombinant human PlGF-1, preparation R-HPG-P16 (Eurogentec) (ligand)
# chain: B1 chain
# B3: PlGF-1 mutein from Geymonat (recombinant human PLGF-1CG) (ligand)
# chain: B1 chain with C125G
# notes: Described as 'a PlGF-1 mutein embodiment of the present invention'; also called Geymonat Mutein; Mutein Geymonat
# Biological target: T1, human VEGFR-1/Fc (R&D Systems) (human, UniProt P17948 27-756, limits assumed)
# T1 construct: Bought reagent, coated on the ELISA plate; also called receptor Flt-1; not shown: Fc part of the bought fusion
# Assay: ELISA: VEGFR-1/Fc coated, PlGF-1 diluted two-fold from 20 ng/ml, detected with biotinylated anti-human PlGF antibodies
# Method: To test receptor binding, an ELISA assay was performed according to the following protocol: [0141] 1. Well of 96-well microtiter plate were coated with 200 μl of 1 μg/ml human VEGFR-1/Fc (R&D Systems) and incubated overnight at 4° C. [0142] 2. Two-fold dilution series starting at 20 ng/ml of various preparations of recombinant human PlGF-1 were prepared and added in a volume of 100 μl per well. The plate was incubated for 2 hours at room temperature. [0143] 3. Bound PlGF-1 was captured with biotinylated anti-human PlGF antibodies (R&D Systems) added in a volume of 100 μl per well for 1 hour at room temperature. [0144] 4. A 1:200 dilution of horseradish peroxidase-conjugated streptavidin (R&D Systems) was added and incubated for 20 min. at room temperature. [0145] 5. Substrate solution (TMB from Pierce) was added and after 15 min. the reaction was quenched with 2 M sulfuric acid. [0146] 6. The absorbance was measured at 450 nm.
row,Binder,binding
1,B1,binds
2,B2,binds
3,B3,binds
